Test results taken from PubChem BioAssay AID2685 (National Center for Advancing Translational Sciences (NCATS), 2010).
Some of the results follow. Shown are side measurements of this screen, not its main read-out; they come without a call. Compounds called inactive in the main read-out are mostly missing here. The note in brackets gives the kind of curve behind each potency; many fits are weak.

Assay: qHTS Assay for Lipid Storage Modulators in Drosophila S3 Cells;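 on cell number change: cells counted by Cell Tracker Red CMTPX staining in the red channel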
Conditions: BODIPY lipid droplet fluorescence, 18-24 h; for cell number change: measured here: cell count max response, cells fed with added oleic acid
Procedure, shortened: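 Drosophila S3 cells loaded with oleic acid (400 uM, as added) and compounds at several concentrations; lipid droplets imaged by 488-nm laser-scanning cytometry, 500–530 nm intensity and object ratio to cell channel. Percent activity normalized to 20 uM Triacsin C.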

[1] = measured here: cell number channel AC50, cells fed with added oleic acid
[2] = measured here: lipid fluorescence (Fed channel) AC50, cells fed with added oleic acid

SMILES | cell number change | AC50 [1] | AC50 [2]
Cc1ccc(NC(=O)c2ccc(NCCCN3CCC(C)CC3)c([N+](=O)[O-])c2)cc1F | -32.4% | 29.1 µM [falling, single point] | 23.1 µM [falling, single point]
O=[N+]([O-])c1ccccc1/C=C/C=N/N1CCCCC1 | 12.4% | 0.366 µM [rising, full curve, poor fit] | 
COc1ccccc1C(=O)Nc1ccc2c(c1)OCO2 |  | 0.0291 µM [rising, full curve, poor fit] | 2.91 µM [rising, partial curve]
CCc1sc(C(=O)NCc2cc(C)n(C)n2)cc1Br | -9.72% |  | 0.92 µM [rising, single point]
CC(C)NC(=O)CN1CCN(Cc2nc(C(c3ccccc3)c3ccccc3)no2)CC1 | 1.75% |  | 
Cc1ccc(S(=O)(=O)NCCc2ccccc2)cc1 |  |  | 6.51 µM [falling, single point]
CCn1c(C)nc2cc(OC)ccc21 |  |  | 0.259 µM [falling, full curve, poor fit]
CCN(C(=O)CN1CCN(S(=O)(=O)c2ccccc2C(F)(F)F)CC1)c1c(N)n(Cc2ccccc2)c(=O)[nH]c1=O | -25.2% | 0.00651 µM [falling, full curve, poor fit] | 
COc1ccc(NC(=O)c2cc(C)cc(C)c2)cc1S(=O)(=O)N1CCCCC1 | 1.25% |  | 
CCOc1ccc(NC(=O)CCC(=O)N/N=C/c2ccc3c(c2)OCO3)cc1 | 25.1% |  | 4.61 µM [rising, full curve, poor fit]
COC(=O)[C@@H](CC(C)C)NS(=O)(=O)N(Cc1ccccc1)[C@@H](CC(C)C)C(=O)OC | -40.6% | 16.4 µM [falling, single point] | 
CCN(CC)S(=O)(=O)c1cccc(NC(=O)COc2ccc(Cl)cc2Br)c1 | 0.754% |  | 0.651 µM [rising, partial curve]
CC(C)(C)C(=O)NC1CC2CCCC(C1)N2C(=O)Nc1ccccc1F (configuration not stated) | 10.6% |  | 
CCOc1ccc(CC(=O)NC2CC(C)(C)N(C)C(C)(C)C2)cc1OCC | -32.4% | 1.03 µM [falling, full curve, poor fit] | 1.3 µM [falling, full curve, poor fit]
Cc1nn(C)cc1S(=O)(=O)N1CCN(Cc2ccccc2Cl)CC1 | -32.5% |  | 
Cn1nc(C(C)(C)C)cc1C(=O)Nc1nc2c(s1)C(=O)CC(C)(C)C2 | -25.3% |  | 4.11 µM [falling, single point]
CCOc1cc(/C=N/NC(=O)CSc2nncn2C)ccc1OCC(N)=O | -4.21% |  | 0.731 µM [falling, full curve, poor fit]
Cc1cc(=O)oc2cc(OCC(=O)N3CCN(c4ccc(F)cc4)CC3)ccc12 |  |  | 29.1 µM [falling, single point]
CSc1ccccc1NC(=O)Nc1cccc(Cl)c1Cl | 45.2% | 13 µM [rising, partial curve] | 29.1 µM [rising, single point]

SMILES | cell number change | AC50 [1] | AC50 [2]
COC(=O)[C@@]12CCCN1[C@H](c1ccc(-c3ccc4c(c3)OCO4)c(OC)c1)[C@H]1C(=O)N(C)C(=O)[C@H]12 | -28.6% |  | 
NC(=O)CC(NC(=O)Cc1cccc2ccccc12)c1ccc(NCCCN2CCCC2=O)c([N+](=O)[O-])c1 (configuration not stated) | 8.98% |  | 10.3 µM [rising, partial curve]
CCN(C(=O)CSc1nc2ccccc2c(=O)n1Cc1ccc(C)cc1)C1CCS(=O)(=O)C1 (configuration not stated) |  |  | 0.231 µM [rising, full curve]
O=C(CCC(=O)N1CCSc2ccccc21)Nc1cccc(F)c1 | 15.3% |  | 
Cc1nn(CC(=O)O)c(C)c1N | -17% |  | 0.206 µM [falling, full curve]
NC(=O)CC(NC(=O)Cc1cccc2ccccc12)c1ccc(N2CCCCCCC2)c([N+](=O)[O-])c1 (configuration not stated) | -38.5% | 29.1 µM [falling, single point] | 29.1 µM [falling, partial curve, poor fit]
O=C(COC(=O)C1(c2ccccc2)CC1)N1CCN(c2ccc(F)cc2)CC1 | 9.64% | 0.411 µM [falling, partial curve, poor fit] | 29.1 µM [rising, single point]
CC(C)COCC(CN(Cc1ccccc1)c1ccccc1)N1CCCC1 (configuration not stated) | -50.9% | 18.4 µM [falling, single point] | 1.46 µM [falling, partial curve]
Cc1cc(=O)oc2cc3oc(=O)cc(C)c3cc12 | -15% |  | 16.4 µM [falling, partial curve]
Oc1ccccc1N1CCN(c2ncccn2)CC1 | 2.3% |  | 
Cc1ccc2c(c1)N(Cc1cccc(C#N)c1)C=NS2(=O)=O | 38.7% | 0.92 µM [rising, full curve, poor fit] | 18.4 µM [rising, partial curve]
COc1ccc(C(CNC(=O)c2cccc(S(=O)(=O)Nc3ccc(F)cc3)c2)N(C)C)cc1 (configuration not stated) |  |  | 20.6 µM [falling, partial curve]
Cc1cc(C)cc(NC(=O)CSc2cc(C(=O)c3nccn3C)c3ccccc3n2)c1 | 6.27% |  | 
N=c1n(CCN2CCOCC2)c2ccccc2n1CC(=O)c1ccc(Cl)c(Cl)c1 | -55.1% | 0.651 µM [falling, partial curve, poor fit] | 0.00461 µM [falling, full curve]
COC(=O)c1cccc(C(=O)N2CCCC(C(=O)c3cccc(OC(C)C)c3)C2)c1 (configuration not stated) | 37.3% | 29.1 µM [rising, single point] | 29.1 µM [falling, partial curve, poor fit]
CC(C)(C)OC(=O)[C@H](Cc1ccccc1)NC(=O)c1[nH]cnc1C(=O)Nc1cccc(Cl)c1 | -24.5% |  | 29.1 µM [falling, single point]
O=C(NCCCCc1ccccc1)c1ccc(Br)o1 | -29.7% | 2.06 µM [falling, full curve, poor fit] | 3.66 µM [falling, partial curve]
O=C(Nc1ccc(Cc2ccncc2)cc1)C1CCC(N2C(=O)C3CCCCC3C2=O)CC1 (configuration not stated) | -32.2% | 29.1 µM [falling, single point] | 18.4 µM [falling, single point]
O=C(NCCc1csc(-c2cccnc2)n1)c1ccccc1 |  | 1.84 µM [rising, partial curve] | 1.84 µM [rising, partial curve]

A stretch from the list above:
SMILES | cell number change | AC50 [1] | AC50 [2]
NC(=O)CC(NC(=O)Cc1cccc2ccccc12)c1ccc(NCCCN2CCCC2=O)c([N+](=O)[O-])c1 (configuration not stated) | 8.98% |  | 10.3 µM [rising, partial curve]
CCN(C(=O)CSc1nc2ccccc2c(=O)n1Cc1ccc(C)cc1)C1CCS(=O)(=O)C1 (configuration not stated) |  |  | 0.231 µM [rising, full curve]
O=C(CCC(=O)N1CCSc2ccccc21)Nc1cccc(F)c1 | 15.3% |  | 
Cc1nn(CC(=O)O)c(C)c1N | -17% |  | 0.206 µM [falling, full curve]
NC(=O)CC(NC(=O)Cc1cccc2ccccc12)c1ccc(N2CCCCCCC2)c([N+](=O)[O-])c1 (configuration not stated) | -38.5% | 29.1 µM [falling, single point] | 29.1 µM [falling, partial curve, poor fit]
O=C(COC(=O)C1(c2ccccc2)CC1)N1CCN(c2ccc(F)cc2)CC1 | 9.64% | 0.411 µM [falling, partial curve, poor fit] | 29.1 µM [rising, single point]
CC(C)COCC(CN(Cc1ccccc1)c1ccccc1)N1CCCC1 (configuration not stated) | -50.9% | 18.4 µM [falling, single point] | 1.46 µM [falling, partial curve]
Cc1cc(=O)oc2cc3oc(=O)cc(C)c3cc12 | -15% |  | 16.4 µM [falling, partial curve]
Oc1ccccc1N1CCN(c2ncccn2)CC1 | 2.3% |  | 
Cc1ccc2c(c1)N(Cc1cccc(C#N)c1)C=NS2(=O)=O | 38.7% | 0.92 µM [rising, full curve, poor fit] | 18.4 µM [rising, partial curve]
COc1ccc(C(CNC(=O)c2cccc(S(=O)(=O)Nc3ccc(F)cc3)c2)N(C)C)cc1 (configuration not stated) |  |  | 20.6 µM [falling, partial curve]
Cc1cc(C)cc(NC(=O)CSc2cc(C(=O)c3nccn3C)c3ccccc3n2)c1 | 6.27% |  | 

Next records follow:

SMILES | cell number change | AC50 [1] | AC50 [2]
CCc1oc(C(=O)O)cc1CN(CC)CC | -49% | 23.1 µM [falling, partial curve] | 0.13 µM [falling, full curve, poor fit]
CCOC(=O)C(C)Sc1nnc(-c2ccccc2O)n1Cc1ccccc1 (configuration not stated) | 13.7% |  | 18.4 µM [rising, single point]
O=C(CCC1CCCC1)N1CCN(C2CCCC2)CC1 | 14.5% |  | 
O=C(N/C(=C/c1cccnc1)C(=O)N1CCCCCC1)c1ccccc1 | 1.9% |  | 
Cc1csc(NC(=O)c2ccc(N3CCCC3=O)cc2)n1 | 9.52% | 6.51 µM [rising, single point] | 
CCOc1ccccc1N(C(=O)c1snc(C(N)=O)c1N)C(C(=O)NCCC(C)C)c1ccco1 (configuration not stated) | -13.4% | 0.0058 µM [falling, full curve, poor fit] | 0.00461 µM [falling, full curve]
O=C(Nc1ccc(Oc2cccnc2)nc1)c1ccc(C(F)(F)F)cc1 | -37.1% | 20.6 µM [falling, single point] | 16.4 µM [falling, single point]
Cc1ccc(-n2nc3c(=O)n(CCCC(=O)N4CCC(C)CC4)nc(C)c3c2C)cc1 | -53.9% | 3.66 µM [falling, single point] | 
COc1cccc2c1OC[C@@H](CO)[C@H]2N(C)C(=O)Nc1ccc(Cl)cc1 | 9.48% |  | 2.31 µM [rising, partial curve, poor fit]
CCCCN=C(N)/C(C(=O)OCC)=C(\O)c1ccc(OC)cc1 | -30.8% | 8.2 µM [falling, partial curve, poor fit] | 0.103 µM [falling, full curve, poor fit]
CC1CCCN(C(=O)CN2C(=O)c3ccccc3C2=O)C1 (configuration not stated) | -32.5% | 5.8 µM [falling, partial curve, poor fit] | 2.06 µM [falling, partial curve, poor fit]
CC(C)(C)c1ccc(OCCCC(=O)Nc2cccc(S(=O)(=O)N3CCOCC3)c2)cc1 | 182% | 20.6 µM [rising, partial curve] | 
COc1ccccc1Cn1c(=S)[nH]c2cc(C(=O)N3CCCC3)ccc2c1=O | 11% |  | 8.2 µM [rising, partial curve]
Cc1cc(C(=O)Nc2ccccc2N2CCOCC2)no1 | -21.4% | 0.291 µM [falling, full curve] | 0.411 µM [falling, full curve, poor fit]
CCCN(CC(=O)Nc1ccc(F)c(F)c1F)C(=O)C1=COCCO1 | 23.3% |  | 
O=C(C1=C(O)C(=O)N(CCCN2CCOCC2)C1c1ccc(Cl)cc1)c1cc2ccccc2o1 (configuration not stated) | -6.42% |  | 
O=C(Cn1cc(C(F)(F)F)ccc1=O)N/N=C/c1cccc(Cl)c1 | -12.6% | 0.00461 µM [rising, full curve, poor fit] | 
NC(=O)c1cn(-c2ccccc2)nc1-c1cccnc1 | 102% | 14.6 µM [rising, partial curve] | 
